This passage reports suppression of toxicity results from PubChem BioAssay.

A short description of test [1]: Drosophila SCA1 whole organism dose response for polyglutamine toxicity reduction (AID 1595). The settings on record: Drosophila SCA1 polyglutamine model, at 1 µM, stronger effect = higher value.
A further test can be described thus: PubChem AID 1597. The conditions noted are these: Drosophila SCA1 polyglutamine model, at 1 µM, stronger effect = higher value.

The other results are listed elsewhere or left out. Entries with a potency or affinity are not part of this list. Where no call is shown, the source marks the result inconclusive.

Turning to `Cn1c(=O)[nH]c2ncn(C)c2c1=O`, the suppression of toxicity in test [1] stood at 4.29; in “PubChem AID 1597” it was 3.58.

As to `CO/N=C(/C(=O)N[C@@H]1C(=O)N2C(C(=O)O)=C(COC(C)=O)CS[C@H]12)c1csc(N)n1`, the results for the suppression of toxicity (in test [1]; in the test “PubChem AID 1597”) were 0 and 8.57, respectively.

With `N[C@H](C(=O)O)[C@@H]1CC(Cl)=NO1`, the suppression of toxicity (in test [1]; in the test “PubChem AID 1597”) was 0 throughout.

As for `O=C1NC(=O)C(c2ccccc2)(c2ccccc2)N1`, the suppression of toxicity was found to be 8.57 in test [1] and 0 in the test “PubChem AID 1597”.

As for `Cc1cc(-c2ccccc2)nnc1NCCN1CCOCC1`, the results for the suppression of toxicity (in test [1]; in “PubChem AID 1597”) were 4.29 and 12.1, respectively.

For the compound `C[C@@H]1CC2C3C[C@H](F)C4=CC(=O)C=C[C@]4(C)[C@@]3(F)[C@@H](O)C[C@]2(C)[C@@]1(O)C(=O)CO` (some centres undefined), the suppression of toxicity in test [1] worked out at 0; in “PubChem AID 1597”, 5.

With `Clc1cc(Cl)c(OCC#CI)cc1Cl`, the suppression of toxicity is 5.71 in test [1] and 9.29 in the test “PubChem AID 1597”.

Turning to `CCN(CC)CCOC(=O)C1(C2CCCCC2)CCCCC1`, the suppression of toxicity in test [1] was found to be 5.71; in “PubChem AID 1597” it was 10.

As for `O=c1c(O)cc2c(O)oc3c(=O)c(O)cc4c3c2c1CC=4O`, the suppression of toxicity was 5.71 in test [1] and 12.1 in the test “PubChem AID 1597”.

With `Cc1cc(CC(=O)O)n(C)c1C(=O)c1ccc(Cl)cc1`, the suppression of toxicity in test [1] is 2.85; in the test “PubChem AID 1597” it was 3.58.

On to `CCN(CC)CCNC(=O)c1cc(Cl)c(N)cc1OC`, for which the suppression of toxicity in test [1] was 1.43; in the test “PubChem AID 1597”, 2.15.

With `CO[C@@H]1[C@@H](O[C@@H]2O[C@H](C)[C@@H](O[C@H]3C[C@@](C)(O)[C@H](O)[C@H](C)O3)[C@H](N(C)C)[C@H]2O)[C@@H](CC=O)C[C@@H](C)[C@@H](O[C@H]2CC[C@H](N(C)C)[C@@H](C)O2)/C=C/C=C/C[C@H](C)OC(=O)C[C@H]1O`, the values for the suppression of toxicity (in test [1]; in the test “PubChem AID 1597”) were 10 and 14.3, respectively.
